Measurements as given in PubChem BioAssay AID624297 (National Center for Advancing Translational Sciences (NCATS), 2012).
Screen size: about 340,000 compounds; about 6,200 (1.8%) were called active. The shares of active, inactive and inconclusive entries below differ from those in the screen. Calls come from the whole dose curve; as a rule, active = well fitted activation curve with a large enough effect; inconclusive = small, poorly fitted or top-dose-only effect; inactive = no such curve, though single readings can be large or run the other way. Potencies beside an inconclusive call are fits to weak or partial responses and may not hold up.

Assay: A quantitative high throughput screen for small molecules that induce DNA re-replication in SW480 colon adenocarcinoma cells. For re-replication activation: % of control where 0% means no effect. Note: nearly all actives have a fitted effect of over 55% in size.
Conditions: Hoechst DNA content imaging, 48 h; re-replication activation: at 46.1 µM (top of the series)
Method in brief: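 First, 250 cells per well were seeded. Next, compound or vehicle (23 nL) was pinned in, plates sat 48 hr at 37 C. Finally Hoechst was added for 40 min before fluorescence scanning.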
Potency is the fitted concentration of half-maximal effect.

Structure (SMILES) | Potency | re-replication activation
Cc1ccc(N(C)C(=O)c2ccc3c(Cl)c4c(nc3c2)CCC4)cc1C | inconclusive: 20.6 µM [activator, single point] | 
OCc1nc2ccccc2n1CC(O)Cn1ccc2ccccc21 (stereo not given) | inactive | 
COc1cc(CNCc2ccccn2)ccc1OCc1cccc(Cl)c1 | inconclusive: 29.1 µM [activator, partial curve, poor fit] | 
Cc1c(C)n(CC(O)CN2C(=O)c3ccccc3S2(=O)=O)c2ccccc12 (stereo not given) | inactive | 
C[n+]1c2n(c3ccccc31)N=C(c1ccccc1)CS2 | inconclusive: 18.4 µM [activator, partial curve, poor fit] | 
O=C(OCn1ncc(Br)c(Br)c1=O)c1ccc(F)cc1 | active: 4.11 µM | 
CCNC(=S)N(Cc1ccc(OC)cc1)C1CC(=O)N(c2ccc(OCC)cc2)C1=O (stereo not given) | inconclusive: 7.31 µM [activator, partial curve, poor fit] | 
COc1ccc(-c2c(-c3ccc(OC)nc3)c3ccccc3n2C)cc1 | inconclusive: 29.1 µM [activator, single point] | 
COc1ccc(C(O)(CCN2CCCCC2)C2CCCCC2)cc1 (stereo not given) | inactive | 
C#CCOc1c(Cl)cc(/C=C2/C(=O)ON=C2C)cc1OC | inactive | 
Cc1ncc(CO)c2c1Oc1nc(-c3ccccc3)nc(SCC(=O)N3CCOCC3)c1C2 | inactive | 
Oc1ccc(-c2cn3c(n2)SCC3)cc1O | inconclusive: 23.1 µM [activator, single point] | 
CN1CCCN(C(=O)c2ccc(Cl)cc2)CC1 | inconclusive: 6.51 µM [activator, single point] | 
O=C(NCCc1c[nH]c2ccccc12)C(=O)NCC1OCCCN1S(=O)(=O)c1ccc(F)cc1 (stereo not given) | inconclusive: 16.4 µM [activator, partial curve, poor fit] | 
O=C(c1cn(-c2ccccc2)nc1-c1cccs1)N1CCN(c2ccccc2)CC1 | active: 2.91 µM | 
O=S(=O)(Nc1cccc2ccccc12)c1ccccc1 | inconclusive: 29.1 µM [activator, single point] | 
O=S(=O)(N/N=C/c1ccccc1OCc1ccc(Cl)cc1)c1ccccc1 | inconclusive: 2.91 µM [activator, full curve, poor fit] | 
CN(C)CCn1c2c(c(SCC(=O)Nc3cccc(C(F)(F)F)c3)nc1=O)CCCC2 | inconclusive: 11.6 µM [activator, partial curve, poor fit] | 
CCOC(=O)c1c(NC(=O)c2cc3n(n2)C(C(F)(F)F)CC(c2cccs2)N3)sc(C)c1C (stereo not given) | inconclusive: 18.4 µM [activator, single point] | 
CN(C)c1ccc(CNC(=O)c2ccc(CNc3c(N4CCCCC4)c(=O)c3=O)cc2)cc1 | inconclusive: 29.1 µM [activator, partial curve, poor fit] | 
CC/C(=N\NC(=O)c1ccc(CN(C)S(=O)(=O)c2ccc(C)cc2)cc1)c1ccc(OC(F)F)cc1 | inconclusive: 0.411 µM [activator, full curve, poor fit] | 
CCN(C[C@H]1N[C@@](C)(C(=O)OC)[C@H]2C(=O)N(Cc3ccccc3)C(=O)[C@@H]12)C(=O)c1ccc(C)cc1 | inconclusive: 6.51 µM [activator, single point] | 
Cc1cccc(OCc2nnc(SCCC(=O)O)n2-c2ccccc2)c1 | inconclusive: 14.6 µM [activator, single point] | 
CCOC(=O)/C=c1\s/c(=C\c2ccccc2C)c(=O)n1CC(=O)NCc1ccc2c(c1)OCO2 | inconclusive: 29.1 µM [activator, single point] | 

Structure (SMILES) | Potency | re-replication activation
CC(C)CCCN1C(Nc2ccccc2)=NC[C@@H]1Cc1ccccc1 | inconclusive: 6.51 µM [activator, single point] | 
CN(C)NC(=S)Nc1ccc2nc(-c3ccccn3)c(-c3ccccn3)nc2c1 | inconclusive: 29.1 µM [activator, single point] | 
Cc1ccc(CN2C(=O)CCC2C(=O)NCCN2CCN(c3cccc(Cl)c3)CC2)cc1 (stereo not given) | inconclusive: 18.4 µM [activator, single point] | 
Cc1ccccc1C(=O)N1CCN(c2ccc(NC(=O)CSc3ccc(Cl)cc3)cc2)CC1 | inactive | 
O=[N+]([O-])c1cccc(/C=C/c2ccc3cccc(O)c3n2)c1 | inconclusive: 3.66 µM [activator, full curve, poor fit] | 
Cc1ccc(C(=O)N(NC2=NS(=O)(=O)c3ccccc32)S(=O)(=O)c2ccc(C)cc2)cc1 | inconclusive: 6.51 µM [activator, single point] | 
COc1ccc(C(C)C)cc1S(=O)(=O)n1cnc(C)c1 | active: 20.6 µM | 
O=C(c1nn2c(C(F)(F)F)cc(-c3cccs3)nc2c1Br)N1CCCc2ccccc21 | inconclusive: 2.31 µM [activator, full curve, poor fit] | 
NC1(N)OC(CN2C(=O)c3ccccc3C2=O)CS1 (stereo not given) | inconclusive: 6.51 µM [activator, single point] | 
CCCS(=O)(=O)c1c(S(=O)(=O)CCC)c2cc(-c3ccncc3)ccn2c1C(=O)OC | active: 18.4 µM | 
S=C(NCc1ccc(Cl)cc1)N1CCN(c2ccccn2)CC1 | inconclusive: 32.6 µM [activator, single point] | 
CCOc1ccc(N2CC(O)(c3cccs3)[N+]3=C2CCCC3)cc1 (stereo not given) | inactive | 
COc1cc2c(C(=O)N3CCN(c4cccc(Cl)c4)CC3)cn(CC(C)C)c(=O)c2cc1OC | inactive | 
COc1ccccc1CN1CC(C(=O)NCc2ccc(C)c(F)c2)CCC1=O (stereo not given) | inactive | 
S=C(Nc1ccc(Nc2ccccc2)cc1)NC1CCCCCC1 | active: 20.6 µM | 
CC(C)N1CC2=C(OC(N)=C(C#N)C2c2cccnc2)/C(=C/c2cccnc2)C1 (stereo not given) | inactive | 
COc1cc(C(=O)N2CCN(c3cccc(C)c3C)CC2)cc(OC)c1OC | active: 0.731 µM | 
COc1ccc(NC(=O)c2cccs2)cc1 | inactive | 
CN1CCN(S(=O)(=O)c2ccc(N3CCN(c4ccccc4Cl)CC3)nc2)CC1 | inactive | 
COc1ccccc1C(=O)NNC(=O)c1ccccc1F | inconclusive: 29.1 µM [activator, single point] | 
COc1ccc2oc(=O)c(/C(C)=N/Nc3ccccc3)cc2c1 | inconclusive: 6.51 µM [activator, single point] | 
Cc1cc(C)cc(OCC(=O)NCc2cc(C)nc3ccccc23)c1 | inconclusive: 13 µM [activator, single point] | 
Cc1cc(OCC(=O)Nc2ccccc2N2CCOCC2)c(C(C)C)cc1Cl |  | inconclusive: -54.5% [activator]
CCCNC(=O)c1nn2c(C(F)(F)F)cc(-c3ccccc3)nc2c1Br | inconclusive: 18.4 µM [activator, single point] | 

Part of the list above, with tabs.
Structure (SMILES)	Potency	re-replication activation
COc1ccc(NC(=O)c2cccs2)cc1	inactive	
CN1CCN(S(=O)(=O)c2ccc(N3CCN(c4ccccc4Cl)CC3)nc2)CC1	inactive	
COc1ccccc1C(=O)NNC(=O)c1ccccc1F	inconclusive: 29.1 µM [activator, single point]	

The listing continues:

Structure (SMILES) | Potency | re-replication activation
O=C(CCc1ccccc1)NNC(=O)Nc1ccc(Br)cc1 | inactive | 
CC(=O)c1ccc(NC(=O)c2ccc3nc(-c4ccco4)c(-c4ccco4)nc3c2)cc1 | inconclusive: 29.1 µM [activator, single point] | 
COc1ccc(/C=N/NC(=O)c2cc(-c3cccnc3)nc3ccccc23)c(OC)c1 | inactive | 
C/C(CC(=O)Nc1cc(C)ccn1)=N\NC(=O)c1ccccc1C | inactive | 
CCOC(=O)c1[nH]c(C)c(C(=O)/C=C/c2ccc(C(=O)O)cc2)c1C | inconclusive: 14.6 µM [activator, single point] | 
COc1ccc2c(c1)C(=O)C(=O)N2CCS(=O)(=O)c1ccccc1 | inconclusive: 29.1 µM [activator, single point] | 
COc1cc(OC)cc(C(=O)NC(C)CCc2ccccc2)c1 (stereo not given) | inconclusive: 23.1 µM [activator, single point] | 
CCCCc1nc(Cl)c(C#N)c2c1CSC(C)(C)C2 | inconclusive: 0.651 µM [activator, partial curve, poor fit] | 
O=C(CSC1=NCCS1)NC1CCCCC1 | inactive | 
COc1cc(Br)c(C2C(C#N)=C(N)Oc3n[nH]c(-c4cccnc4)c32)cc1OC (stereo not given) | inconclusive: 25.9 µM [activator, partial curve, poor fit] | 
Cc1cc(-c2csc3nc[nH]c(=S)c23)cc(C)c1C | inconclusive: 18.4 µM [activator, single point] | 
Cc1cnc([N+](=O)[O-])n1CCOC(=O)NC(=O)c1ccc(F)cc1 | inactive | 
COc1ccc(Nc2nc(N)nc(CCl)n2)cc1 | active: 3.26 µM | 
O=C(COc1ccccc1)Nc1c(C(=O)N2CCC(N3CCCCC3)CC2)oc2ccccc12 | inactive | 
Cn1c(N)c(S(=O)(=O)NCc2ccccc2)c(=O)n(C)c1=O | inconclusive: 0.0058 µM [activator, full curve, poor fit] | 
CCN(CC)CCN(C(=O)c1ccc2ccccc2c1)c1nc2cc3c(cc2s1)OCO3 | inconclusive: 29.1 µM [activator, single point] | 
CC(C)c1nc2oc3c(NCCO)ncnc3c2c2c1COC(C)(C)C2 | inconclusive: 14.6 µM [activator, single point] | 
Cc1cc2c(cc1C)NC(C)CC(=O)N2 (stereo not given) | inactive | 
CC(C(=O)NC1CCCCC1)N(Cc1ccccc1)C(=O)c1snc(C(N)=O)c1N (stereo not given) | inconclusive: 16.4 µM [activator, partial curve, poor fit] | 
Cc1ccc(NC(=O)CNC(=O)c2ccco2)cc1Cl | inconclusive: 0.291 µM [activator, full curve, poor fit] | 
CCOC(=O)N1CCc2cc(OC)c(OC)c3c2c1cc1cc(OC)c(OC)cc13 | active: 18.4 µM | 
COc1ccccc1COn1c(=O)c(-c2ccco2)[n+]([O-])c2ccccc21 | inactive | 

Part of the list above, reformatted.

| Structure (SMILES) | Potency | re-replication activation |
| --- | --- | --- |
| COc1cc(OC)cc(C(=O)NC(C)CCc2ccccc2)c1 (stereo not given) | inconclusive: 23.1 µM [activator, single point] |  |
| CCCCc1nc(Cl)c(C#N)c2c1CSC(C)(C)C2 | inconclusive: 0.651 µM [activator, partial curve, poor fit] |  |
